Certain results were filed several times, with different values. The list is limited to them. An entry can have further records. The values listed for one entry differ, and nothing given here explains why; dose, time, organism, isomer or construct need not be as stated for each record.
Molecular target: chymotrypsin-like activity of the 20S CP (Homo sapiens, UniProt P28074)
Assay: Kinetic assay, CT-L FRET reporter hydrolysis by purified 20S CP
Format: biochemical
Conditions: maximum of dose response curve

For `Cc1c(C)c2c(c(C)c1OC(=O)CCC(=O)O)CCC(C)(CCCC(C)CCCC(C)CCCC(C)C)O2` (stereo not shown), the “20S CP stimulation over basal level (dose response curve)” value was 150% and 50%.

Reference: patent US11092596B2, “Material and method to screen proteasome stimulators” (Purdue Research Foundation, priority 2017, dated 2021)
